Values from PubChem BioAssay AID652272 (Drosophila RNAi Screening Center, 2013)
In all, the deposit lists about 21,000 reagents; below is a random part of those with a known target gene and a result. Of all reagents, 503 (2.4%) are marked active. 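Raw plate light values, not normalised; calls rest on replicate z-scores that were not deposited; hits include reporter decreases as well as increases.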 A plus sign joins genes that one reagent is predicted to hit. Not stated in the record: the amount of reagent, the time to read-out.

Screen: 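Genome-wide knock-down search for components of Hedgehog signalling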 (primary screen)
System: Drosophila clone 8 (Cl8) cells
Reagent: long dsRNA against Drosophila genes
Measurement: 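Plate reader light from a firefly reporter under a ptc promoter fragment that responds to Hedgehog, with Renilla light as transfection reference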
Scale: firefly Hh reporter signal: higher = more ptc reporter light; Renilla reference signal: higher = more Renilla control light
Call rule: 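Called a hit if the two-replicate mean z-score lies below -2 or above +3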
Calls: active = hit: reporter lowered or raised; inactive = not a hit

With Alp13 (GeneID 41236) [DRSC15781], what was measured?
firefly Hh reporter signal, replicate 1: 94308; firefly Hh reporter signal, replicate 2: 1.34e5; Renilla reference signal, replicate 1: 3269; Renilla reference signal, replicate 2: 3808; outcome: inactive

How did the screen score Amy-d (GeneID 36932) [DRSC05919]?
firefly Hh reporter signal, replicate 1: 92795; firefly Hh reporter signal, replicate 2: 43130; Renilla reference signal, replicate 1: 2416; Renilla reference signal, replicate 2: 3394; outcome: inactive

What is on record for CG34300 (GeneID 5740334) [DRSC13977]?
firefly Hh reporter signal, replicate 1: 61003; firefly Hh reporter signal, replicate 2: 2.18e5; Renilla reference signal, replicate 1: 14092; Renilla reference signal, replicate 2: 5019; outcome: inactive

For CG17782 (GeneID 42912) [DRSC15267], how do the results read?
firefly Hh reporter signal, replicate 1: 4.79e5; firefly Hh reporter signal, replicate 2: 58888; Renilla reference signal, replicate 1: 25619; Renilla reference signal, replicate 2: 2330; outcome: inactive

What did the screen give for AgmNAT (GeneID 31512) [DRSC18072]?
firefly Hh reporter signal, replicate 1: 55197; firefly Hh reporter signal, replicate 2: 1.90e5; Renilla reference signal, replicate 1: 2257; Renilla reference signal, replicate 2: 7276; outcome: inactive

What did the screen give for ItgaPS4 (GeneID 36693) [DRSC06630]?
firefly Hh reporter signal, replicate 1: 52540; firefly Hh reporter signal, replicate 2: 53553; Renilla reference signal, replicate 1: 1442; Renilla reference signal, replicate 2: 4099; outcome: inactive

How did the screen score RpS12 (GeneID 39480) [DRSC11270]?
firefly Hh reporter signal, replicate 1: 76896; firefly Hh reporter signal, replicate 2: 26340; Renilla reference signal, replicate 1: 3994; Renilla reference signal, replicate 2: 1155; outcome: inactive

With Vha68-3 (GeneID 34695) [DRSC02809], how do the results read?
firefly Hh reporter signal, replicate 1: 1.50e5; firefly Hh reporter signal, replicate 2: 56557; Renilla reference signal, replicate 1: 3764; Renilla reference signal, replicate 2: 5369; outcome: inactive

For CG15747 (GeneID 32288) [DRSC19713], how do the results read?
firefly Hh reporter signal, replicate 1: 70578; firefly Hh reporter signal, replicate 2: 60088; Renilla reference signal, replicate 1: 2755; Renilla reference signal, replicate 2: 1841; outcome: inactive

Which result is listed for CG17196 (GeneID 43112) [DRSC15189]?
firefly Hh reporter signal, replicate 1: 7.03e5; firefly Hh reporter signal, replicate 2: 1.28e5; Renilla reference signal, replicate 1: 35250; Renilla reference signal, replicate 2: 3856; outcome: inactive

In a second layout: results already given
ItgaPS4 (GeneID 36693) [DRSC06630]
- firefly Hh reporter signal, replicate 1: 52540
- firefly Hh reporter signal, replicate 2: 53553
- Renilla reference signal, replicate 1: 1442
- Renilla reference signal, replicate 2: 4099
- outcome: inactive

RpS12 (GeneID 39480) [DRSC11270]
- firefly Hh reporter signal, replicate 1: 76896
- firefly Hh reporter signal, replicate 2: 26340
- Renilla reference signal, replicate 1: 3994
- Renilla reference signal, replicate 2: 1155
- outcome: inactive

Vha68-3 (GeneID 34695) [DRSC02809]
- firefly Hh reporter signal, replicate 1: 1.50e5
- firefly Hh reporter signal, replicate 2: 56557
- Renilla reference signal, replicate 1: 3764
- Renilla reference signal, replicate 2: 5369
- outcome: inactive

Additional entries:
Which result is listed for CG9970 (GeneID 38351) [DRSC08644]?
firefly Hh reporter signal, replicate 1: 74487; firefly Hh reporter signal, replicate 2: 41593; Renilla reference signal, replicate 1: 2674; Renilla reference signal, replicate 2: 3174; outcome: inactive

What is on record for CG9171 (GeneID 33807) [DRSC03152]?
firefly Hh reporter signal, replicate 1: 1.96e5; firefly Hh reporter signal, replicate 2: 1.26e5; Renilla reference signal, replicate 1: 6980; Renilla reference signal, replicate 2: 5425; outcome: inactive

What did the screen give for gdl-ORF39 + gdl [DRSC11350]?
firefly Hh reporter signal, replicate 1: 1.23e5; Renilla reference signal, replicate 1: 5339; Renilla reference signal, replicate 2: 3445; outcome: inactive

Which result is listed for CG15617 (GeneID 36871) [DRSC06570]?
firefly Hh reporter signal, replicate 1: 88305; firefly Hh reporter signal, replicate 2: 52485; Renilla reference signal, replicate 1: 2619; Renilla reference signal, replicate 2: 3392; outcome: inactive

Which result is listed for Ih (GeneID 36589) [DRSC05477]?
firefly Hh reporter signal, replicate 1: 1.68e5; firefly Hh reporter signal, replicate 2: 3.69e5; Renilla reference signal, replicate 1: 4000; Renilla reference signal, replicate 2: 14258; outcome: inactive

Which result is listed for Ih (GeneID 36589) [DRSC07445]?
firefly Hh reporter signal, replicate 1: 99765; firefly Hh reporter signal, replicate 2: 54508; Renilla reference signal, replicate 1: 4355; Renilla reference signal, replicate 2: 2802; outcome: inactive

Which result is listed for caps (GeneID 39493) [DRSC11333]?
firefly Hh reporter signal, replicate 1: 22643; firefly Hh reporter signal, replicate 2: 42647; firefly Hh reporter signal, replicate 3: 52232; Renilla reference signal, replicate 1: 3499; Renilla reference signal, replicate 2: 3584; outcome: inactive

How did the screen score CG31274 + MESK4 [DRSC13202]?
firefly Hh reporter signal, replicate 1: 50534; firefly Hh reporter signal, replicate 2: 1.74e5; Renilla reference signal, replicate 1: 10040; Renilla reference signal, replicate 2: 3028; outcome: inactive

For CG8072 (GeneID 39181) [DRSC10960], what was measured?
firefly Hh reporter signal, replicate 1: 55976; firefly Hh reporter signal, replicate 2: 56364; firefly Hh reporter signal, replicate 3: 59894; Renilla reference signal, replicate 1: 5107; Renilla reference signal, replicate 2: 3713; outcome: inactive

How did the screen score CG8173 (GeneID 32753) [DRSC20088]?
firefly Hh reporter signal, replicate 1: 83977; firefly Hh reporter signal, replicate 2: 2.33e5; Renilla reference signal, replicate 1: 2999; Renilla reference signal, replicate 2: 7879; outcome: inactive

With CG14013 (GeneID 33786) [DRSC02344], what was measured?
firefly Hh reporter signal, replicate 1: 88065; firefly Hh reporter signal, replicate 2: 23069; Renilla reference signal, replicate 1: 1890; Renilla reference signal, replicate 2: 3173; outcome: inactive
